Patent publication US7902327B2, “Dendrimeric peptides, pharmaceutical compositions and methods of using the same” (New York University School of Medicine, priority 2007, dated 2011)
For at least one compound, name, drawing or mass did not settle the structure. Where a SMILES comes first, the peptide text is derived from it. Where no end group is shown, it is not given here. Side-chain parts run from the residue outwards. [ ]: non-standard residue; d: D form. The star is where a group is joined. Lys(α,ε-(ArgTrp)2) = N=C(N)NCCC[C@H](N)C(=O)N[C@@H](Cc1c[nH]c2ccccc12)C(=O)NCCCC[C@H](NC(=O)[C@H](Cc1c[nH]c2ccccc12)NC(=O)[C@@H](N)CCCNC(=N)N)C(=O)*; βAla = NCCC(=O)O

Tested on: E. coli RP437 biofilms
Assay: CFU assay of biofilm inhibition
Format: cell-based
Conditions: 24 hours
Procedure: Twenty-four hour biofilms of E. coli RP437 were grown on stainless steel coupons in LB medium containing up to 100 μg/mL of the three antimicrobial peptides—dendrimer, hexamer, and octamer. CFU counts were used to determine the extent of inhibition. The procedure of the study is as follows.
Overnight cultures of E. coli RP437 grown in LB medium were used to inoculate 5 mL of LB supplemented with up to 100 μg/mL of each peptide and polished, sterile 316L stainless steel coupons (1.2 cm×0.6 cm×0.1 cm). The cultures were incubated at 37° C. for 24 hours. The coupons were then removed from the bacterial culture using sterile forceps and washed three times in 0.85% NaCl buffer and placed in round-bottom tubes containing 3 mL of fresh NaCl buffer. These were then sonicated for 1.5 minutes in a water bath. The NaCl buffer containing bacterial cells was serially diluted and 60 μL of 1000 and 5000 fold dilutions were plated on LB agar plates. The plates were incubated at 37° C. overnight. The number of CFUs for each sample was counted after incubation. The experiment was conducted in duplicate.

## RWRWRWRW-NH2 (C-terminus assumed) [octamer]
50 μg/mL
  reduction of viable biofilm cell counts: 54%
100 μg/mL
  reduction of viable biofilm cell counts: 54%

## RWRWRW-NH2 (C-terminus assumed) [Hexamer, reference compound]
25 μg/mL
  reduction of viable biofilm cell counts: 49%
50 μg/mL
  reduction of viable biofilm cell counts: 81%
100 μg/mL
  reduction of viable biofilm cell counts: 87%

## N=C(N)NCCC[C@H](N)C(=O)N[C@@H](Cc1c[nH]c2ccccc12)C(=O)NCCCC[C@H](NC(=O)[C@H](Cc1c[nH]c2ccccc12)NC(=O)[C@@H](N)CCCNC(=N)N)C(=O)NCCCC[C@H](NC(=O)[C@H](CCCCNC(=O)[C@H](Cc1c[nH]c2ccccc12)NC(=O)[C@@H](N)CCCNC(=N)N)NC(=O)[C@H](Cc1c[nH]c2ccccc12)NC(=O)[C@@H](N)CCCNC(=N)N)C(=O)NCCC(N)=O [Dendrimer] (H-RWK([Trp-Arg])K(Lys(α,ε-(ArgTrp)2))[βAla]-NH2; N-terminus and C-terminus assumed)
35 μg/mL
  reduction of viable biofilm cell counts: 21%
50 μg/mL
  reduction of viable biofilm cell counts: 94%
100 μg/mL
  reduction of viable biofilm cell counts: 95%
